Where a name gives a salt, the structure may show the parent alone. At least one structure is not confirmed: it was looked up by name or label, or the drawing left a doubt.
Tests used:
human α-thrombin [1] = molecular target: T1, human α-thrombin (Homo sapiens, UniProt P00734); assay: Enzyme assay for the inhibition of thrombin (s-2238 substrate); assay type: biochemical; settings: s-2238, pH 7.4, room temperature
T1 construct: purified human α-thrombin dissolved in thrombin assay buffer
Experimental: 1. Enzyme Assays for the Inhibition of Thrombin The following reagents were used in these assays: Thrombin assay buffer: 145 mM NaCl, 5 mM KCl, 30 mM N-2-hydroxyethyl piperazine-N'-2-ethanesulfonic acid, pH 7.4, 1 mg/ml polyethylene glycol (PEG-8000). 3 mM D-Phe-Pip-Arg-p-nitroanilide (s-2238) in H2 O. 3 U/ml purified human α-thrombin dissolved in thrombin assay buffer. Inhibitors to be tested were dissolved in H2 O, methanol, or DMSO just prior to use. Assay Procedure To each well in a 96-well microtiter plate, 270 μl of assay buffer was added. Human α-thrombin (10 μl of 3 U/ml) was added, then 10 μl of inhibitor were added and mixed. The samples were incubated at room temperature for a defined period of time (3 min for initial IC50 determinations). The enzymic reaction was started with 10 μl of 3 mM s-2238 substrate and continued at room temperature. The change in optical density was measured at 405 nm. A kinetic microplate reader (Molecular Devices Corporation Vmax) was used to measure the change in optical density over time. […] Alternatively, results are also reported in Table 1 expressed as k2 /ki which is the second order rate constant in per mole per minute for inactivation time of the enzyme [Kitz, et al., J. Biol. Chem., 237, 3245 (1962)].

human α-thrombin [2] = molecular target: T1, human α-thrombin; assay: Concentration required for doubling thrombin clotting time in human plasma; assay type: biochemical; settings: human citrated plasma, 10 U/ml human thrombin
Experimental: Procedure for Determining the Concentration Required for Doubling Thrombin Clotting Time--Clotting Time Assays The following reagents were used in these assays: Owren's Veronal Buffer: 125 mM NaCl, 28.4 mM sodium barbital, pH 7.35. Human citrated plasma obtained from human volunteers or citrated plasma obtained from IP-dosed animals (prepared as described below). 10 NIH Units/ml human α-thrombin in thrombin buffer for use with human plasma. […] The blood was centrifuged at […] (480×g) for 15 min at room temperature (using a Sorvall RT 6000B centrifuge). The plasma was removed, pooled, and aliquoted into small tubes which were stored frozen for later use. Clotting Time Measurement Clotting times were determined by pipetting 0.1 ml of Owren's buffer (pre-warmed 37° C.) and 0.1 ml of human or rat plasma into yellow sample cuvettes. For studies with human plasma 10 U/ml human thrombin (10 ml) was placed in the reservoir assembly station of the MLA 700. (Medical Laboratory Automation, Electra 700 Reservoir Assembly). For rat studies, the human thrombin concentration was 25 U/ml. The cuvettes were vortexed and then placed on the MLA 700 sample wheel. The coagulation timer (MLA 700) automatically dispenses 0.1 ml human thrombin into the sample in each cuvette. Detection of the fibrin clot was determined optically by the MLA 700. […]

Structure (SMILES)	Thrombin k2 /ki (second order rate constant for inactivation of the enzyme) (human α-thrombin [1])	ED50, drug concentration required to double clotting time (human α-thrombin [2])
CC(=O)OC1C(CCCNC(=N)N)C(=O)N1C(=O)C(C)(C)C (stereo not shown) [XXI, 4-Acetyloxy-3-guanidinopropyl-1-t-butylcarbonyl-2-azetidinone hydrochloride salt]	2.4 × 10^6 m^-1 min^-1	2000 nM
CC(=O)N1CC(CCCNC(=N)N)C1=O (stereo not shown) [VIII, 3-Guanidinopropyl-1-acetyl-2-azetidinone hydrochloride salt]	2.5 × 10^5 m^-1 min^-1	4000 nM

Reference: patent publication US5175283A, “Azetidin-2-one derivatives as serine protease inhibitors” (Bristol-Myers Squibb Company, priority 1992, dated 1992)
